The full ranking holds about 33,000 sequences; the median of “E-score (-0.5 to 0.5)” is about -0.015, and the highest 2% start at about 0.3. This is one part of the list.
target: T1, Abf1 (UniProt P14164); assay: PBM E-score (8-mer binding enrichment) (E-score (-0.5 to 0.5)); higher = stronger / more preferred TF binding; details: protein concentration: 200 nM; construct: GST-full length
T1 sequence: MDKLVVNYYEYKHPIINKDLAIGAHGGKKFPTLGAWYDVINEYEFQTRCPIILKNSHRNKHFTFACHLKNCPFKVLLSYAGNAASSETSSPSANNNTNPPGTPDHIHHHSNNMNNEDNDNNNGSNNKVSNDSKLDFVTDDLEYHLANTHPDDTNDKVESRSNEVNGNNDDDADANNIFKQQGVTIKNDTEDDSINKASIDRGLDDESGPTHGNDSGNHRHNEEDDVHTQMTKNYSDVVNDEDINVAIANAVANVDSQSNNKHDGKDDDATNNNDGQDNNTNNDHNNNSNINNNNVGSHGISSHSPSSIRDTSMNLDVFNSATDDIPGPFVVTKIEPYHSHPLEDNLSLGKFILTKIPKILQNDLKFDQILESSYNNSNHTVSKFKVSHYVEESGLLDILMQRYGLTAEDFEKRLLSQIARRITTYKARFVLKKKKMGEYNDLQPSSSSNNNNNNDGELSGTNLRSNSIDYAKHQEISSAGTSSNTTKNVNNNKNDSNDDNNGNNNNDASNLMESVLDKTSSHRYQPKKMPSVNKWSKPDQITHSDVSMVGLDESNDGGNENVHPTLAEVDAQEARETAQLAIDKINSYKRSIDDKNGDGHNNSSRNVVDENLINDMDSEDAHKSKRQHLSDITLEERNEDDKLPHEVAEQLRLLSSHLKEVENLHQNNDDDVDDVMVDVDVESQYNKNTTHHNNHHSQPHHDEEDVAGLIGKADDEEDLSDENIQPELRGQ
How it was run: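 Universal all-10-mer Agilent arrays, fresh or stripped once, were converted to double-stranded form by primer extension. GST-tagged yeast transcription factors from PURExpress in vitro transcription/translation, full-length or DNA-binding domain only, were applied at about 100-200 nM and detected with fluorescent anti-GST. After masliner normalisation, the Universal PBM Analysis Suite scored each ungapped eight-base word together with its reverse complement by E-score.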

Row | Sequence | PBM E-score
1 | AAGTAGAA | 0.0913
2 | ACAAGACC | -0.143
3 | ACCAGGAG | -0.163
4 | GCCGCGAA | -0.173
5 | CTAATAGA | 0.0745
6 | ATATAGTA | 0.242
7 | CATCCCCC | -0.31
8 | CGTCCGAC | 0.275
9 | GACGAAGC | 0.247
10 | GGAACGAC | -0.00619
11 | CTTCCATC | -0.162
12 | CGACCAGA | -0.0204
13 | GATCTTGC | 0.0639
14 | ATCAGTTG | 0.0237
15 | AAGCGCGA | -0.0643
16 | GACATAGC | 0.234
17 | ATCGCACG | 0.166
18 | TCGGCAAA | -0.169
19 | GAGCGATC | 0.13
20 | AATAGACT | -0.0844
21 | ACTCTCCC | -0.00877
22 | ACCAAGGA | -0.154
23 | ATCGGGGC | -0.146
24 | CCGTGTAC | 0.246
25 | CAGTACTA | -0.0419

Row | Sequence | PBM E-score
26 | ATAACCCC | -0.0251
27 | AGACGGGG | 0.0661
28 | GGCGAAGA | -0.146
29 | CTGAATAA | 0.0519
30 | TAATTATA | 0.284
31 | ACCACTTG | -0.0975
32 | CAAGGATA | -0.0997
33 | CACGGTAG | 0.219
34 | CCCCTACG | -0.208
35 | CCAGCTTC | 0.0146
36 | CGCACTAC | 0.0804
37 | CCCAAAAC | 0.0038
38 | AGCCCCTC | -0.206
39 | CACTAGTG | 0.214
40 | CATTATGA | 0.0769
41 | GTCGTTAA | 0.296
42 | ATCGCTTA | 0.194
43 | GACGGATA | 0.157
44 | AGATTCGG | -0.0437
45 | AGCACATC | -0.0371
46 | TGCACTAA | 0.123
47 | CGGGGGAG | -0.242
48 | ACTATTGA | 0.117
49 | GAGTATGA | 0.0292
50 | AGTGGATA | 0.0619

Row | Sequence | PBM E-score
51 | TCCGATAA | -0.0901
52 | AACGTGGG | -0.095
53 | ACGGCGCC | 0.184
54 | GGATTGTA | -0.0229
55 | CAATGTTC | -0.12
56 | CCTCTCGA | -0.294
57 | AGCATCCG | -0.122
58 | ATGCTCTG | -0.0418
59 | CTACGAAG | 0.215
60 | GGGACTTA | 0.0443
61 | ACCTACGT | -0.0655
62 | CAACCCTG | -0.133
63 | GCGCATGA | -0.152
64 | CATGCACA | 0.0374
65 | ATCGCACA | 0.198
66 | CGACAGGA | 0.0746
67 | AAGCTTAG | 0.147
68 | ACCGATCG | -0.0406
69 | AGTCATAT | 0.131
70 | ACATTAAA | 0.101
71 | CCTGTATA | -0.129
72 | CGTACTCC | 0.203
73 | CCTATTTC | 0.095
74 | TCTGAGCA | -0.0446
75 | ACCCTATC | -0.216

Row | Sequence | PBM E-score
76 | GAGACGTA | 0.182
77 | ATTTGGAG | -0.164
78 | GCGCGGTA | 0.0645
79 | AGGGATTG | -0.0744
80 | GTCAGCCA | -0.0164
81 | ACACTACC | -0.192
82 | TACCTCCA | -0.0247
83 | AGTGCTAA | -0.0243
84 | GGGGCTAA | -0.29
85 | GGGTGCTA | -0.118
86 | AACCTTAA | 0.127
87 | CAACAAGC | -0.119
88 | ATATAGGC | 0.106
89 | ACCGAAAA | 0.101
90 | CCACGTGA | -0.00332
91 | ACAGCGAG | -0.184
92 | AAAGTCTC | 0.0822
93 | GCAATTGC | 0.0727
94 | TGATTTAA | 0.178
95 | ACTTCCTA | -0.0298
96 | CGTTAGAA | 0.293
97 | GCAGCACC | -0.273
98 | AGCGCGTC | -0.175
99 | ACACTAAA | 0.0252
100 | GGCCGCAA | -0.168

Reprinted at random: 3 records from the list, in no set order.
Row | Sequence | PBM E-score
76 | GAGACGTA | 0.182
72 | CGTACTCC | 0.203
68 | ACCGATCG | -0.0406

(further entries)

Row | Sequence | PBM E-score
101 | CGAACGTA | 0.212
102 | AATGTCGT | 0.302
103 | CTGGGTCC | -0.354
104 | CCATGTCC | -0.07
105 | GCGAACCC | -0.0661
106 | AGAAAACT | -0.0446
107 | AGAGACAC | -0.173
108 | ACGTAAAT | 0.113
109 | ACGGACCC | -0.16
110 | CATATTGA | -0.00256
111 | AGCCCGGA | -0.23
112 | CATCTAAC | 0.0366
113 | CGGTGCTA | -0.0421
114 | CAAACGCA | -0.126
115 | CATTGGAG | -0.018
116 | GTAACTAA | -0.0125
117 | CGGGTGCA | -0.26
118 | CAATGGCC | -0.233
119 | CAGTGGGC | -0.0855
120 | CCCCTGCA | -0.383
121 | GACATCAC | 0.352
122 | AATGACTC | 0.173
123 | CATCACGA | 0.0436
124 | CTCTGTCC | -0.189
125 | GACTTGCC | -0.0317

Reformatted: results already given
Row	Sequence	PBM E-score
80	GTCAGCCA	-0.0164
81	ACACTACC	-0.192
82	TACCTCCA	-0.0247
83	AGTGCTAA	-0.0243
84	GGGGCTAA	-0.29
85	GGGTGCTA	-0.118
86	AACCTTAA	0.127
87	CAACAAGC	-0.119
88	ATATAGGC	0.106
89	ACCGAAAA	0.101
90	CCACGTGA	-0.00332
91	ACAGCGAG	-0.184
92	AAAGTCTC	0.0822
93	GCAATTGC	0.0727
94	TGATTTAA	0.178
95	ACTTCCTA	-0.0298
96	CGTTAGAA	0.293
97	GCAGCACC	-0.273
98	AGCGCGTC	-0.175
99	ACACTAAA	0.0252
100	GGCCGCAA	-0.168
101	CGAACGTA	0.212
102	AATGTCGT	0.302
103	CTGGGTCC	-0.354
104	CCATGTCC	-0.07
105	GCGAACCC	-0.0661
106	AGAAAACT	-0.0446
107	AGAGACAC	-0.173
108	ACGTAAAT	0.113
109	ACGGACCC	-0.16
110	CATATTGA	-0.00256
111	AGCCCGGA	-0.23
112	CATCTAAC	0.0366
113	CGGTGCTA	-0.0421
114	CAAACGCA	-0.126
115	CATTGGAG	-0.018
116	GTAACTAA	-0.0125
117	CGGGTGCA	-0.26
118	CAATGGCC	-0.233
119	CAGTGGGC	-0.0855
120	CCCCTGCA	-0.383
121	GACATCAC	0.352
122	AATGACTC	0.173

(continued)

Row | Sequence | PBM E-score
126 | AATGACAG | 0.16
127 | ACAAGAGA | 0.0342
128 | CTAGGCAA | -0.134
129 | ATACATTC | 0.0799
130 | CTTGGATC | -0.0408
131 | ACGCAACT | 0.00448
132 | AGGGAAAG | -0.072
133 | GAAGATAA | 0.204
134 | CAAGTCAG | -0.306
135 | AACTTAAG | 0.0348
136 | CGGTGGAA | -0.176
137 | GACCGATA | 0.0548
138 | GAACTGCC | 0.0393
139 | ATGGAGTC | 0.0131
140 | CCCGATCG | -0.0638
141 | ATCTGCGA | -0.0337
142 | CGCCTGAC | -0.063
143 | GTCGAGCA | -0.172
144 | ATTCCCTG | -0.0922
145 | ACTGTGGA | -0.172
146 | AGGGAGGA | -0.187
147 | GATCCGCC | -0.0516
148 | AAGCGCAA | 0.0496
149 | AGACCAGA | -0.0695
150 | GTAGCTAC | 0.156

Row | Sequence | PBM E-score
151 | AATGGTCC | -0.0212
152 | CCGCCTAG | -0.118
153 | AGCAGTAG | -0.164
154 | CGGAACTA | -0.0591
155 | ATTGCTAA | 0.175
156 | CACATTAG | -0.0502
157 | GAATATCC | 0.0475
158 | GGATATCC | 0.197
159 | AGACGACT | 0.125
160 | GGGTATAA | -0.139
161 | CTGACTAA | 0.0088
162 | CGGTAGCC | 0.0656
163 | ACATTCTA | 0.091
164 | AACCGTGC | 0.306
165 | CCAATAGA | -0.0293
166 | CGATACCA | 0.018
167 | ATTGTTGG | 0.119
168 | AGTGGGAA | 0.00667
169 | CACTCTGA | 0.00475
170 | CAGTTCGA | -0.0806
171 | GAAGAATC | -0.058
172 | CTGTATCA | 0.0736

Reference: the supplement of paper PMC3334620
